The target in the assay is T1, Phaeodactylum tricornutum cyclin-dependent kinase A2 (CDKA2), GAL4 DNA-binding domain fusion (bait) (Phaeodactylum tricornutum) (UniProt B7GDW6).
T1 sequence: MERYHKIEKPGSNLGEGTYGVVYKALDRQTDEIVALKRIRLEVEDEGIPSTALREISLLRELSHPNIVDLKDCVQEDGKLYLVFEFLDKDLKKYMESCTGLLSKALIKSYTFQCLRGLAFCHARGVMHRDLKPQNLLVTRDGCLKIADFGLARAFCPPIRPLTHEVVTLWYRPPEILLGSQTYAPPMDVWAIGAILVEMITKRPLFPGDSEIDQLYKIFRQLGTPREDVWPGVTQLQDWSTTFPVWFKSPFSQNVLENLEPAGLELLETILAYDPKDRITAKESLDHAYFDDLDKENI
As to the kind of experiment: two-hybrid; pairwise Y2H co-transformation of bait (DBD) and prey (AD) plasmids in yeast PJ694-alpha; growth on medium lacking Leu, Trp and His and X-Gal (LacZ) test; three independent colonies.

These are yes or no findings as the source states them, for the method shown. Sequences can lack the tags named with a protein.

B1: dsCYC2, prey (AD) fusion (protein, UniProt B7FX62 1-349)
chain: MMKQQHSQQEDQIFDLLGVMIRQERTRYRVVNYLQREMVYECQQQQSQYVVEACASITNNQYAVKKSQSSTSLRDVQGDVGNSSPRSARTTSGPLRIESTASPVSDRAVQFSFWRQQMFDWACMVTDCFSIDREVVAASFNLLDRYVARELSSHSSSTCPDDYSPALVSPISREDFQLFSMTCLYITVKILEPYPRKLSLEALVDMSRGFYTPDDIAVTEREIMTALSWHLHPPTAIGFSRMYWSLLASTDATEPSSAVQTTCATLTELAVANAEFIDSPPSLVGLAATVLAYRLPANTNAHDTDQNGCSAAVHEAQARLLLAKLAPLVEPQAQQFHAIYTQLEALYGN
As for B1, the binding result is on record as “no binding”.

(Values after paper PMC4392632.)
